Source: paper PMC5263256
Results are given in words; binding and its absence hold for the method and conditions named. Binding seen in cells or lysates may run through a third protein. A yes stands for co-enrichment or nearness to the bait. Other partners may have been found. Where a sequence is shown, tags or fusion partners need not be part of it.

T1: V5-tagged Zfp609 (mouse) (UniProt Q8BZ47)
T1 sequence: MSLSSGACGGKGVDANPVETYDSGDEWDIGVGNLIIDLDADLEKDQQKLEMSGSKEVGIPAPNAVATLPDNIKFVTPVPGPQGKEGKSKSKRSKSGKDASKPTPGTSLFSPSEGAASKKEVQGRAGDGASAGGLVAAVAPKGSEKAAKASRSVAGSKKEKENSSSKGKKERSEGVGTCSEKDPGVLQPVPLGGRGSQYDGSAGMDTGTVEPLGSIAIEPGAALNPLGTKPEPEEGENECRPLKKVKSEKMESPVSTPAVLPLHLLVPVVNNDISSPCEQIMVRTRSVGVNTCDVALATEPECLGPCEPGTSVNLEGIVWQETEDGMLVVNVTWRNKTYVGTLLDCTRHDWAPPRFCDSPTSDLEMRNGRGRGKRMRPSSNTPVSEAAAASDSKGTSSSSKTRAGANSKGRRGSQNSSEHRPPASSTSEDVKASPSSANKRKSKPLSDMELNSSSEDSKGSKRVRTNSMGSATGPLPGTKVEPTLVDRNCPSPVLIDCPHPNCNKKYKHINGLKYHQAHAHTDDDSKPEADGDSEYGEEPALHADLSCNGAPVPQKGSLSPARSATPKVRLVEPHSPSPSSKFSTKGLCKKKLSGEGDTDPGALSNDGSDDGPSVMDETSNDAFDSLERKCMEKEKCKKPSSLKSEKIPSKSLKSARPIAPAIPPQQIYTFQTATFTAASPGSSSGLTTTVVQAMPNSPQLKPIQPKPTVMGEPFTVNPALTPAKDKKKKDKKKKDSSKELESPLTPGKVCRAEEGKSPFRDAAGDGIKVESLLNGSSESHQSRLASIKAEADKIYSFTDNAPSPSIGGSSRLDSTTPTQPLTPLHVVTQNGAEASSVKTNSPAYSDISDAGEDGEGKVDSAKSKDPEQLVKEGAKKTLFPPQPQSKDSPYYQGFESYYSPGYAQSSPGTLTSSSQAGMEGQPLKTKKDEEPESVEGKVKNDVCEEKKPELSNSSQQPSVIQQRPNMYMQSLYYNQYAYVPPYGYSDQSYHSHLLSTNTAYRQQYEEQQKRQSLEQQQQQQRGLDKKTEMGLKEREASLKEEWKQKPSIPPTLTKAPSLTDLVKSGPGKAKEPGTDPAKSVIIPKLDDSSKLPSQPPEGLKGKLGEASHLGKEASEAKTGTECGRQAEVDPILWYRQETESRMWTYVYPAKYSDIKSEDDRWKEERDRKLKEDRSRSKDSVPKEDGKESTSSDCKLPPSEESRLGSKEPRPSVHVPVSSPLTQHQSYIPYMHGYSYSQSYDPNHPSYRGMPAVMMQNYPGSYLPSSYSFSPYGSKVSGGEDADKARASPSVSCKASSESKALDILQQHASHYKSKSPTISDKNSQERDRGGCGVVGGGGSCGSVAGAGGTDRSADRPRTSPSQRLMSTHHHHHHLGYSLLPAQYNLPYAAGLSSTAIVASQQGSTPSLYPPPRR

B1: Smc1a (protein, UniProt Q9CU62 1-1233)
chain: MGFLKLIEIENFKSYKGRQIIGPFQRFTAIIGPNGSGKSNLMDAISFVLGEKTSNLRVKTLRDLIHGAPVGKPAANRAFVSMVYSEEGAEDRTFARVIVGGSSEYKINNKVVQLHEYSEELEKLGILIKARNFLVFQGAVESIAMKNPKERTALFEEISRSGELAQEYDKRKKEMVKAEEDTQFNYHRKKNIAAERKEAKQEKEEADRYQRLKDEVVRAQVQLQLFKLYHNEVEIEKLNKELASKNKEIEKDKKRMDKVEDELKEKKKELGKMMREQQQIEKEIKEKDSELNQKRPQYIKAKENTSHKIKKLEAAKKSLQNAQKHYKKRKGDMDELEKEMLSVEKARQEFEERMEEESQSQGRDLTLEENQVKKYHRLKEEASKRAATLAQELEKFNRDQKADQDRLDLEERKKVETEAKIKQKLREIEENQKRIEKLEEYITTSKQSLEEQKKLEGELTEEVEMAKRRIDEINKELNQVMEQLGDARIDRQESSRQQRKAEIMESIKRLYPGSVYGRLIDLCQPTQKKYQIAVTKVLGKNMDAIIVDSEKTGRDCIQYIKEQRGEPETFLPLDYLEVKPTDEKLRELKGAKLVIDVIRYEPPHIKKALQYACGNALVCDNVEDARRIAFGGHQRHKTVALDGTLFQKSGVISGGASDLKAKARRWDEKAVDKLKEKKERLTEELKEQMKAKRKEAELRQVQSQAHGLQMRLKYSQSDLEQTKTRHLALNLQEKSKLESELANFGPRINDIKRIIQSREREMKDLKEKMNQVEDEVFEEFCREIGVRNIREFEEEKVKRQNEIAKKRLEFENQKTRLGIQLDFEKNQLKEDQDKVHMWEQTVKKDENEIEKLKKEEQRHMKIIDETMAQLQDLKNQHLAKKSEVNDKNHEMEEIRKKLGGANKEMTHLQKEVTAIETKLEQKRSDRHNLLQACKMQDIKLPLSKGTMDDISQEEGSSQGEESVSGSQRTSSIYAREALIEIDYGDLCEDLKDAQAEEEIKQEMNTLQQKLNEQQSVLQRIAAPNMKAMEKLESVRDKFQETSDEFEAARKRAKKAKQAFEQIKKERFDRFNACFESVATNIDEIYKALSRNSSAQAFLGPENPEEPYLDGINYNCVAPGKRFRPMDNLSGGEKTVAALALLFAIHSYKPAPFFVLDEIDAALDNTNIGKVANYIKEQSTCNFQAIVISLKEEFYTKAESLIGVYPEQGDCVISKVLTFDLTKYPDANPNPNEQ
B2: Mlf2 (protein, UniProt Q99KX1 1-247)
chain: MFRFMRDVEPEDPMFLMDPFAIHRQHMSRMLSGGFGYSPFLSITDGNMPATRPASRRMQAGAVSPFGMLGMSGGFMDMFGMMNDMIGNMEHMAAGGNCQTFSSSTVISYSNTGDGAPKVYQETSEMRSAPGGIRETRRTVRDSDSGLEQMSIGHHIRDRAHILQRSRNHRTGDQEERQDYINLDESEAAAFDDEWRRETSRYRQQRPLEFRRHEASVGGGRRAEGPPRLAIQGPEDSPSRQSRRYDW
B3: Stag2 (protein, UniProt O35638 1-1231)
chain: MIAAPEIPTDFNLLQESETHFSSDTDFEDIEGKNQKQGKGKTCKKGKKGPAEKGKSGNGGGKPPSGSNRMNGHHQQNGVENMMLFEVVKMGKSAMQSVVDDWIESYKHDRDIALLDLINFFIQCSGCKGVVTAEMFRHMQNSEIIRKMTEEFDEDSGDYPLTMAGPQWKKFKSSFCEFIGVLVRQCQYSIIYDEYMMDTVISLLTGLSDSQVRAFRHTSTLAAMKLMTALVNVALNLSINMDNTQRQYEAERNKMIGKRANERLELLLQKRKELQENQDEIENMMNAIFKGVFVHRYRDAIAEIRAICIEEIGIWMKMYSDAFLNDSYLKYVGWTMHDKQGEVRLKCLTALQGLYYNKELNSKLELFTSRFKDRIVSMTLDKEYDVAVQAIKLLTLVLQSSEEVLTAEDCENVYHLVYSAHRPVAVAAGEFLYKKLFSRRDPEEDGLMKRRGRQGPNANLVKTLVFFFLESELHEHAAYLVDSMWDCATELLKDWECMNSLLLEEPLSGEEALTDRQESALIEIMLCTIRQAAECHPPVGRGTGKRVLTAKEKKTQLDDRTRITELFAVALPQLLAKYSVDAEKVTNLLQLPQYFDLEIYTTGRLEKHLDALLRQIRNIVEKHTDTDVLEACSKTYHALCNEEFTIFNRVDISRSQLIDELADKFNRLLEDFLQEGEEPDEDDAYQVLSTLKRITAFHNAHDLSKWDLFACNYKLLKTGIENGDMPEQIVIHALQCAHYVILWQLAKITESTSTKEDLLRLKKQMRVFCQICQHYLTNVNTTVKEQAFTILCDILMIFSHQIMSGGRDMLEPLVYTPDSSLQSELLSFILDHVFIEQDDDSNSADGQQEDEASKIEALHKRRNLLAAFCKLIVYTVVEMNTAADIFKQYMKYYNDYGDIIKETMSKTRQIDKIQCAKTLILSLQQLFNEMIQENGYNFDRSSSTFSGIKELARRFALTFGLDQLKTREAIAMLHKDGIEFAFKEPNPQGESHPPLNLAFLDILSEFSSKLLRQDKRTVYVYLEKFMTFQMSLRREDVWLPLMSYRNSLLAGGDDDTMSVISGMSSRGSTVRSKKSKPSTGKRKVVEGMQLALPEESSSSDSMWLSREQTLHTPVMMQTPQLTSTIMREPKRLRPEDSFMSVYPMQAEHHQTPLDYNRRGTSLMEDDEEPIVEDVMMSSEGRIEDLNEGMDFDTMDIDLPPSKNRRERTELKPDFFDPASIMDESVLGVSMF
B4: Rad21 (protein, UniProt Q61550 1-635)
chain: MFYAHFVLSKRGPLAKIWLAAHWDKKLTKAHVFECNLESSVESIISPKVKMALRTSGHLLLGVVRIYHRKAKYLLADCNEAFIKIKMAFRPGVVDLPEENREAAYNAITLPEEFHDFDQPLPDLDDIDVAQQFSLNQSRVEEITMREEVGNISILQENDFGDFGMDDREIMREGSAFEDDDMLVSTSASNLLLEPEQSTSNLNEKMNHLEYEDQYKDDNFGEGNDGGILDDKLISNNDGGIFDDPPALSEAGVMLPEQPAHDDMDEDDNGSLGGPDSPDSVDPVEPMPTMTDQTTLVPNEEEAFALEPIDITVKETKAKRKRKLIVDSVKELDSKTIRAQLSDYSDIVTTLDLAPPTKKLMMWKETGGVEKLFFLPAQPLWNNRLLKLFTRCLTPLVPEDLRKRRKGGEADNLDEFLKEFENPEVPREEQQPQQQQPQPQRDVIDEPIIEEPSRLQDSVMEASRTTIEESAMPPPPPQGVKRKAGQIDPEPSIPPQQVEQMEIPPVELPPEEPPNICQLIPELELLPEKEKEKEKEKEEEEEEEDEDASGGDQDQEERRWNKRTQQMLHGLQRALAKTGAESISLLELCRNTNRKQAAAKFYSFLVLKKQQAIELTQEEPYSDIIATPGPRFHII
B5: Mau2 (protein, UniProt Q9D2X5 1-619)
chain: MAAQAAAAAQAAAAAQAAAAQAAQAEAAESWYLALLGFAEHFRTSSPPKIRLCVHCLQAVFPFKPPQRIEARTHLQLGSVLYHHTKNSEQARSHLEKAWLISQQIPQFEDVKFEAASLLSELYCQENSVDAAKPLLRKAIQISQQTPYWHCRLLFQLAQLHTLEKDLVSACDLLGVGAEYARVVGSEYTRALFLLSKGMLLLMERKLQEVHPLLTLCGQIVENWQGNPIQKESLRVFFLVLQVTHYLDAGQVKSVKPCLKQLQQCIQTISTLHDDEILPSNPADLFHWLPKEHMCVLVYLVTVMHSMQAGYLEKAQKYTDKALMQLEKLKMLDCSPILSSFQVILLEHIIMCRLVTGHKATALQEISQVCQLCQQSPRLFSNHAAQLHTLLGLYCVSVNCMDNAEAQFTTALRLTNHQELWAFIVTNLASVYIREGNRHQEVLYSLLERINPDHSFPVSSHCLRAAAFYVRGLFSFFQGRYNEAKRFLRETLKMSNAEDLNRLTACSLVLLGHIFYVLGNHRESNNMVVPAMQLASKIPDMSVQLWSSALLRDLNKACGNAMDAHEAAQMHQNFSQQLLQDHIEACSLPEHNLITWTDGPPPVQFQAQNGPNTSLASLL

Target: T1, V5-tagged Zfp609 (mouse)
Assay: affinity purification with mass spectrometry; anti-V5 agarose beads on nuclear extract of Zfp609-V5-expressing NSCs, 3 hr at 4°C, 225 U Benzonase, washes in C-100* (100 mM KCl, 0.02% NP-40); NSCs not expressing Zfp609-V5 as control; hits present in two purifications

Row | Binder | binding
1 | B1 | binds
2 | B2 | binds
3 | B3 | binds
4 | B4 | binds
5 | B5 | binds
